These are yes or no findings as the source states them, for the method shown. For some of these results: In cells and extracts the contact can be indirect. Some entries that bind do so weakly or less than the wild type.

Chains of the proteins cited; added tags and fusions are not shown. Lines headed by an entry give the natural chain unless they say otherwise; changes in a name come on top.
UniProt Q9NZQ7: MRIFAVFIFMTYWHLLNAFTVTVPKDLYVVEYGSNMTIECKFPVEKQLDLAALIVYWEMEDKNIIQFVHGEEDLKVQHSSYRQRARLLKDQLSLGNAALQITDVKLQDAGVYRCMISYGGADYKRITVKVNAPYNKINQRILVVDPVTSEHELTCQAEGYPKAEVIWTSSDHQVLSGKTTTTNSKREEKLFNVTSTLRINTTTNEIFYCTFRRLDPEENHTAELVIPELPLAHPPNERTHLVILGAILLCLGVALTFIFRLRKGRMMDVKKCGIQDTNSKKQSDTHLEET

Data on two molecules can be found in US20230174616A1.

Experiment [1] deals with biotinylated hPD-L1 (extracellular domain of human PD-L1, Ala18 to Thr239, expressed in E. coli, non-glycosylated) (human). The experiment is described as follows: radioactive pull-down of [35S]-labeled alanine variant on immobilized hPD-L1, normalized to SPAM.
Experiment [2] shares this target. Nature of the experiment: [35S]-labeled variant on immobilized hPD-L1, normalized to SPAM.
The target of experiment [3] is hPD-L1* (recombinant glycosylated human PD-L1 ectodomain, A18-T239, expressed in Expi293F cells) (human) (UniProt Q9NZQ7). The experiment is described as follows: radioactive pull-down.
For experiment [4] the target is unchanged. The experiment is described as follows: radioactive pull-down of [35S]-labeled SPAM on immobilized target, normalized to hPD-L1* [cont.) E].

Regarding MPIFLDHILNKFWILHAAGSGSSGHHHHHHSS ([35S]-methionine label) [SPAM Y18A variant as printed (tyrosine of SPAM replaced by alanine; Tyr stands at position 17)], the binding result in experiment [1] and in experiment [2] was “binds” in each case.

As for MPIFLDHILNKFWILHYAGSGSSGHHHHHHSS ([35S]-methionine label) [[35S]-labeled SPAM peptide (in vitro translated)], the binding result in experiment [3] and in experiment [4] was “binds” in each case.
